This is one part of the list.
What was measured:
Assay in all cases: log2 fold change, soluble protein after heating vs DMSO (PISA); higher = thermal stabilisation; K562 cells, 10 uM, 30 min; active = over 0.2 and 3.5 SD of the protein, either way, in both replicates (recomputed)
[1] = compound: NC(=O)Nc1cc(-c2cccc(F)c2)sc1C(=O)N[C@H]1CCCNC1
In short: (§1)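 K562 cells at 2×10^6 cells/mL were treated for 30 min with 10 μM compound, and aliquots were heated for 3 min over 48°C-58°C before pooling. Extraction used PBS with 0.5% NP-40 at 4°C, and soluble protein was the supernatant after 21,000xg for 90 min, measured by TMTpro 16plex LC-MS/MS with channel sums equalised. Thermal stability values, relative to control samples and from duplicates, are log2 fold changes.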

The chains behind the UniProt entries cited, without tags or fusion partners. Where a name states a change or a piece, a line headed by the entry shows the natural chain unless it says otherwise.
UniProt Q9UI26: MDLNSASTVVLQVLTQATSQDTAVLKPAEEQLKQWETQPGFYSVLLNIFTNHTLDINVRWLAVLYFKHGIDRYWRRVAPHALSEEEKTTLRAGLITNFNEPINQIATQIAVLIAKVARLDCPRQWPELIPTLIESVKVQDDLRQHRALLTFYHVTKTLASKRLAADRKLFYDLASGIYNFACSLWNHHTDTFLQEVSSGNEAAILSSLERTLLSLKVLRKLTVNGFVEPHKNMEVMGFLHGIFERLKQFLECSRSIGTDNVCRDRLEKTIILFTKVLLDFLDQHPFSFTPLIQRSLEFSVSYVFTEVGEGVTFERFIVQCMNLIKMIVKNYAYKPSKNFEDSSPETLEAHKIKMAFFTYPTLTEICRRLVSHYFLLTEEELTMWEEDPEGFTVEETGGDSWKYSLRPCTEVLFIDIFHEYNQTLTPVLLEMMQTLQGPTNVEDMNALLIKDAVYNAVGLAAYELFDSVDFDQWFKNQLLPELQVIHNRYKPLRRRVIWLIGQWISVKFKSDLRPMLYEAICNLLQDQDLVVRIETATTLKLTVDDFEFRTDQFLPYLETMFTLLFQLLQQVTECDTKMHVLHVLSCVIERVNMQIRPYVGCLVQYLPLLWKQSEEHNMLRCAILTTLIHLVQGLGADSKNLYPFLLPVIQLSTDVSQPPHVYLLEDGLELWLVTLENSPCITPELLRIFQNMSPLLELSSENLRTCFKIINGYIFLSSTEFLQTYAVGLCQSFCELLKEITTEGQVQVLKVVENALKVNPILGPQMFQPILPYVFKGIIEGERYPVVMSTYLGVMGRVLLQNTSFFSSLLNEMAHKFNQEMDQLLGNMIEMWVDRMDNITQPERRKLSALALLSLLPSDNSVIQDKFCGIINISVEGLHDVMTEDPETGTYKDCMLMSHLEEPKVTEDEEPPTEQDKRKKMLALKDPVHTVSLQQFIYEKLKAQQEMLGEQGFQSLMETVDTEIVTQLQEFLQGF
UniProt Q13572: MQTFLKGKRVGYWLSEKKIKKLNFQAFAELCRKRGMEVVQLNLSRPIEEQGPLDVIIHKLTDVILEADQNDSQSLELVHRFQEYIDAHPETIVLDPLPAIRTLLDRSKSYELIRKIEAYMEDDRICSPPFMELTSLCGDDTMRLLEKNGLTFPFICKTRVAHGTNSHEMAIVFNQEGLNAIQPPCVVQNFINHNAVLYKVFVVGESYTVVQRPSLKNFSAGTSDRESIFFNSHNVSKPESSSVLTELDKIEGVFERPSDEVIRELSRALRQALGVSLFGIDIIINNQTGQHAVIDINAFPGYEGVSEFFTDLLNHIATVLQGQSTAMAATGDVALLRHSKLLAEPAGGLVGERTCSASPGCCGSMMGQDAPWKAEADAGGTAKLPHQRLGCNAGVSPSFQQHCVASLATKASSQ
UniProt Q9NX62: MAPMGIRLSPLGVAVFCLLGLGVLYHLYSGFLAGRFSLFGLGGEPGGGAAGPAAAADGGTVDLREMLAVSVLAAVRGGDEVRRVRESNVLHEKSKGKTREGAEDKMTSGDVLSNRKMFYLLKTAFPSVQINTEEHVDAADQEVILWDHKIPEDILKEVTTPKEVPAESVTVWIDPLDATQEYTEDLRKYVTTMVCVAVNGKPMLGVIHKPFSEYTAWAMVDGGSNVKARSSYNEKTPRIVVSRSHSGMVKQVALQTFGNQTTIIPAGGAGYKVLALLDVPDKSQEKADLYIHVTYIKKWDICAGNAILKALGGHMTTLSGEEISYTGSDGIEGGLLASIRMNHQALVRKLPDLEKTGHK
UniProt O75054: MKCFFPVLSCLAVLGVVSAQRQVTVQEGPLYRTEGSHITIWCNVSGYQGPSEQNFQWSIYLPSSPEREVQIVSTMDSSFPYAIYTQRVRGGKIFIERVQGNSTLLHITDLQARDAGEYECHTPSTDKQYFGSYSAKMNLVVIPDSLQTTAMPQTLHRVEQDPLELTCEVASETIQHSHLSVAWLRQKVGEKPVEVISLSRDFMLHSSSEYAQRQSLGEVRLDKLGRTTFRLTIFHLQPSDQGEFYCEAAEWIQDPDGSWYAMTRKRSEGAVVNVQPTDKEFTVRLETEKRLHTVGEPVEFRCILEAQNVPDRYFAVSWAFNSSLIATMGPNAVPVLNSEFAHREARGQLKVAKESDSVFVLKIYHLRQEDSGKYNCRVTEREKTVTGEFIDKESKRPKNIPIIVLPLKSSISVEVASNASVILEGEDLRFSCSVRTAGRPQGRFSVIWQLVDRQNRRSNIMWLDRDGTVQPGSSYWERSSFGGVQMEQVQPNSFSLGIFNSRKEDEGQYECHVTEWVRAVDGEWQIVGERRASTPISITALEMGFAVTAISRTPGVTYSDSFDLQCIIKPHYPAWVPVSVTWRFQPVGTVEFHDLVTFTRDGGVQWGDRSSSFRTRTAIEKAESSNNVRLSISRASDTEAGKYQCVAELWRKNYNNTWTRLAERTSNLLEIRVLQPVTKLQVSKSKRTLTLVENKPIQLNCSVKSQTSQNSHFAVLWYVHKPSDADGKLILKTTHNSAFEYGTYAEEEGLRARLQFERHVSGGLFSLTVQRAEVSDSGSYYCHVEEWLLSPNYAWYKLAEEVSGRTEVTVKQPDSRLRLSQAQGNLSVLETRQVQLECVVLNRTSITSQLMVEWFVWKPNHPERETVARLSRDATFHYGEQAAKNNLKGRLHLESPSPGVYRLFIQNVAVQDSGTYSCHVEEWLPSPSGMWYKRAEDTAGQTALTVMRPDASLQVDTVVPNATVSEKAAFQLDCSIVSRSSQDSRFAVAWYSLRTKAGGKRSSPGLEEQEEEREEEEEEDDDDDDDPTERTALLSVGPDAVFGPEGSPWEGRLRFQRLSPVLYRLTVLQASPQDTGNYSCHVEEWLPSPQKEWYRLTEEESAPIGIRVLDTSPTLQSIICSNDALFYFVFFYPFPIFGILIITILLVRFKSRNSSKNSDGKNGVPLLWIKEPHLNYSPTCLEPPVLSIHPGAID
UniProt Q9Y5U9: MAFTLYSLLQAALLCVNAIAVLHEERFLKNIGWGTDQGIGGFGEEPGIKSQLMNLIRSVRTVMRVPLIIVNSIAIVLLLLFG
UniProt O15357: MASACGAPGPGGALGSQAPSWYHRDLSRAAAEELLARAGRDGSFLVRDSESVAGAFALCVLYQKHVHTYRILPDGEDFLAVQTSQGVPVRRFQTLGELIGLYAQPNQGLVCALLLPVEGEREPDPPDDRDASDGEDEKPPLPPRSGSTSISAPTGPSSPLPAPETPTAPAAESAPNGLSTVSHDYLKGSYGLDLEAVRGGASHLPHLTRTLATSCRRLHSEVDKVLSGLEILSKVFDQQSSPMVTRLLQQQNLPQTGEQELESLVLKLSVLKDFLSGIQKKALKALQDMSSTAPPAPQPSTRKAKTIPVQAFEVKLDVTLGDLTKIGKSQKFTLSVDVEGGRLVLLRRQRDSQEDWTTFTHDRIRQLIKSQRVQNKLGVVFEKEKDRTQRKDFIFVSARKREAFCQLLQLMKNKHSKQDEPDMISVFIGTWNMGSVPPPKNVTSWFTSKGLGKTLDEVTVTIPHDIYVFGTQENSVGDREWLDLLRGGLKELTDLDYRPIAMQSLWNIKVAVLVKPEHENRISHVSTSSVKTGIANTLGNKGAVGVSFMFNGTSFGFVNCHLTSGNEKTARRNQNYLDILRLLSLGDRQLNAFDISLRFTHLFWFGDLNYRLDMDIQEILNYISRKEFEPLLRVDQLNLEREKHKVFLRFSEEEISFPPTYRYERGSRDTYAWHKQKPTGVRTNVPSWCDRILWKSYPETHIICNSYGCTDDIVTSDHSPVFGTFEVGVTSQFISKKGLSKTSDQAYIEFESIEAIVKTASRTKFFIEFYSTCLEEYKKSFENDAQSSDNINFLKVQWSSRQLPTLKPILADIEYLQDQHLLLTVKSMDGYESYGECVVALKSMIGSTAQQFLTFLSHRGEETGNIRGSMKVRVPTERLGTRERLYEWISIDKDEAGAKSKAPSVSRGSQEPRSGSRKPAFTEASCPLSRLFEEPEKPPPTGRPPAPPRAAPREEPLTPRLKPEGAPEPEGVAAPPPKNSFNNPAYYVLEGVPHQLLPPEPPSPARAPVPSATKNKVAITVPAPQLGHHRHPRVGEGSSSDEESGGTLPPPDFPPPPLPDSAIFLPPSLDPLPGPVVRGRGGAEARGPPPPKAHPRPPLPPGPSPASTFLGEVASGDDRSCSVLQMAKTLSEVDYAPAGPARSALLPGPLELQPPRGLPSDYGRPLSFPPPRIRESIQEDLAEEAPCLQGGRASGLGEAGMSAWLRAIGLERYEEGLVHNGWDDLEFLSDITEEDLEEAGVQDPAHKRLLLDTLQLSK
UniProt O00425, whole entry, looked up: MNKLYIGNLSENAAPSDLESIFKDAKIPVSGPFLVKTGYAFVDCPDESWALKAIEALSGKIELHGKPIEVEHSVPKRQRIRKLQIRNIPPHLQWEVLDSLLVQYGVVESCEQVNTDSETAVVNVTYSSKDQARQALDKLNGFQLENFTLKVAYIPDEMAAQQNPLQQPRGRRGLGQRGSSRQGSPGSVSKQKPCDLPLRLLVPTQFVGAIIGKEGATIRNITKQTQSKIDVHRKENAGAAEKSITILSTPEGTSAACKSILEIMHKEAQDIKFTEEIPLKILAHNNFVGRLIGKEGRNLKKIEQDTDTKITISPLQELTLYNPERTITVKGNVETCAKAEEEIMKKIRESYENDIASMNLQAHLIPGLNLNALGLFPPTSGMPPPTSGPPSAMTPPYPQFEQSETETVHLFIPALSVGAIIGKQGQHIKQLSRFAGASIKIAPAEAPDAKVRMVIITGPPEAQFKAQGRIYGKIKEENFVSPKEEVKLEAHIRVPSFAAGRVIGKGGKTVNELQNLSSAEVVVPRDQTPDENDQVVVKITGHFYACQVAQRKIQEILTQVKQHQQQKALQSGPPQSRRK
UniProt P46940, whole entry, looked up: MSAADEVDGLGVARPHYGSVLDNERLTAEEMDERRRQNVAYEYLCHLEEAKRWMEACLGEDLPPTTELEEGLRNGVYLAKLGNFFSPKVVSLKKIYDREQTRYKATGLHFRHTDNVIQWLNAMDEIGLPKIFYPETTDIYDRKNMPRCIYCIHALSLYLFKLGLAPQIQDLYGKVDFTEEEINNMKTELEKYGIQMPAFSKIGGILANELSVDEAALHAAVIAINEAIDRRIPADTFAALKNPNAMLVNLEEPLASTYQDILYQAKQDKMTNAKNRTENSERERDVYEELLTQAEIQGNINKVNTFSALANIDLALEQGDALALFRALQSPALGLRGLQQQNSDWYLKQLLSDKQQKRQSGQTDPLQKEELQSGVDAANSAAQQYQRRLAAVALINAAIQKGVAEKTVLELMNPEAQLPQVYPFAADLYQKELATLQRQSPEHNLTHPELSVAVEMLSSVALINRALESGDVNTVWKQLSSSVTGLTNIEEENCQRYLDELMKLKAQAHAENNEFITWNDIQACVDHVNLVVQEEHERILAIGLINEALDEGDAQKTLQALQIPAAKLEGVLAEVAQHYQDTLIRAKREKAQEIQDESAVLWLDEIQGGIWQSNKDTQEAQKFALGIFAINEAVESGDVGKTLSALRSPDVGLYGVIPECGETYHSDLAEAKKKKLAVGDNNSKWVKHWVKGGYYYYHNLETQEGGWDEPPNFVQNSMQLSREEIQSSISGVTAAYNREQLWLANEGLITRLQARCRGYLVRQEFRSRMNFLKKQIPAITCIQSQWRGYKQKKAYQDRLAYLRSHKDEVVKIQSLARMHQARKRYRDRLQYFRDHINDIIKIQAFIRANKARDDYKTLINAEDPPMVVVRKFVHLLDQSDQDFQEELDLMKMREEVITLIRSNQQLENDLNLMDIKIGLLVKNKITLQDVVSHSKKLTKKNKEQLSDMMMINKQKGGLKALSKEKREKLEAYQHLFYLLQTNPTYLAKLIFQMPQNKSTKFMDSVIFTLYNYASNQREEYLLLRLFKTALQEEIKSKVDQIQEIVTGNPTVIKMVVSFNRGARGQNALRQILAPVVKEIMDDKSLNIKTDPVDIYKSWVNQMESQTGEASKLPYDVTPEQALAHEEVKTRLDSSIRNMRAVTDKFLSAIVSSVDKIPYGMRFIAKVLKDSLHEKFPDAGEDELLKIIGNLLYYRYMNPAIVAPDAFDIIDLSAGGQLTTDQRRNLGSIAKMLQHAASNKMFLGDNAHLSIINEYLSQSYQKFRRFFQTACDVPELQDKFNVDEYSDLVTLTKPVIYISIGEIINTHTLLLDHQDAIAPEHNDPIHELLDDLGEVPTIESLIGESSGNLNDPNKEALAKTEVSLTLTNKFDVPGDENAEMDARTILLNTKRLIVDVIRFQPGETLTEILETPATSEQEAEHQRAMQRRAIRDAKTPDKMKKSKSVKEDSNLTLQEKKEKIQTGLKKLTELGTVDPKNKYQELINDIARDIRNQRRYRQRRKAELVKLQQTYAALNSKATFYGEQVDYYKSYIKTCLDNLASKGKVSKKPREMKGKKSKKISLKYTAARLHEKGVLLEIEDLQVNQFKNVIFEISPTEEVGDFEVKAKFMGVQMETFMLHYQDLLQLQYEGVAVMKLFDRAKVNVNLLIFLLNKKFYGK

[2] = compound: NC(=O)c1cnc(N[C@@H]2CCCC[C@@H]2N)nc1Nc1cccc(-n2nccn2)c1
In short: as §1

[3] = compound: NC1(c2ccc(-c3nc4ccn5c(=O)[nH]nc5c4cc3-c3ccccc3)cc2)CCC1
In short: as §1

[4] = compound: NCC(=O)Nc1ccc(-n2nc(C(F)(F)F)cc2-c2ccc3c(ccc4ccccc43)c2)cc1
In short: as §1

entinostat = compound: Nc1ccccc1NC(=O)c1ccc(CNC(=O)OCc2cccnc2)cc1 [entinostat]
In short: as §1

vorinostat = compound: O=C(CCCCCCC(=O)Nc1ccccc1)NO [vorinostat]
In short: as §1

citarinostat = compound: O=C(CCCCCCNC(=O)c1cnc(N(c2ccccc2)c2ccccc2Cl)nc1)NO [citarinostat]
In short: as §1

silmitasertib = compound: O=C(O)c1ccc2c(c1)nc(Nc1cccc(Cl)c1)c1ccncc12 [silmitasertib]
In short: as §1

[5] = compound: O=C1NC(=O)C(c2cnc3ccccn23)=C1c1cn2c3c(cc(F)cc13)CN(C(=O)N1CCCCC1)CC2
In short: as §1

[6] = compound: c1cc(OCCN2CCCCC2)cc(-c2n[nH]c3ccc(-c4nnc[nH]4)cc23)c1
In short: as §1

Measured: log2 fold change

IREB2 (UniProt P48200)
inactive: [1] -0.059 | [2] -0.011 | [3] -0.127 | [4] -0.031 | entinostat 0.02 | vorinostat 0.088 | citarinostat 0.018 | silmitasertib -0.029 | [5] 0.007 | [6] -0.01

IMP3 (UniProt Q9NV31)
inactive: [1] 0.027 | [2] 0.358 | [3] 0.049 | [4] -0.355 | entinostat 0.58 | vorinostat 0.033 | citarinostat 0.105 | silmitasertib -0.201 | [5] -0.018 | [6] 0.018

ISCA2 (UniProt Q86U28)
inactive: [1] -0.044 | [2] -0.072 | [3] -0.113 | [4] -0.065 | entinostat 0 | vorinostat 0.039 | citarinostat 0.033 | silmitasertib -0.025 | [5] -0.112 | [6] -0.033

INTS9 (UniProt Q9NV88)
inactive: [1] -0.002 | [2] -0.047 | [3] -0.003 | [4] -0.037 | entinostat 0.013 | vorinostat -0.033 | citarinostat 0.036 | silmitasertib -0.007 | [5] -0.091 | [6] -0.016

ILVBL (UniProt A1L0T0)
inactive: [1] -0.053 | [2] -0.036 | [3] -0.022 | [4] -0.007 | entinostat -0.041 | vorinostat 0.002 | citarinostat 0.064 | silmitasertib -0.008 | [5] -0.009 | [6] -0.064

ITM2A (UniProt O43736)
inactive: [1] -0.025 | [2] 0.059 | [3] 0.031 | [4] -0.023 | entinostat -0.035 | vorinostat 0.076 | citarinostat -0.02 | silmitasertib 0.092 | [5] 0.115 | [6] -0.003

IPO11 isoform 2 (UniProt Q9UI26)
inactive: [1] -0.004 | [2] -0.074 | [3] -0.113 | [4] -0.039 | entinostat 0.022 | vorinostat 0.027 | citarinostat 0.048 | silmitasertib 0.032 | [5] -0.027 | [6] 0.005

2 successive records already listed, quoted:
ILVBL (UniProt A1L0T0)
inactive: [1] -0.053 | [2] -0.036 | [3] -0.022 | [4] -0.007 | entinostat -0.041 | vorinostat 0.002 | citarinostat 0.064 | silmitasertib -0.008 | [5] -0.009 | [6] -0.064

ITM2A (UniProt O43736)
inactive: [1] -0.025 | [2] 0.059 | [3] 0.031 | [4] -0.023 | entinostat -0.035 | vorinostat 0.076 | citarinostat -0.02 | silmitasertib 0.092 | [5] 0.115 | [6] -0.003

Following part.

ITPK1 (UniProt Q13572)
inactive: [1] 0.018 | [2] -0.015 | [3] -0.163 | [4] -0.003 | entinostat 0.007 | vorinostat 0.056 | citarinostat 0.087 | silmitasertib 0.025 | [5] -0.061 | [6] 0.048

IFRD1 (UniProt O00458)
inactive: [1] -0.035 | [2] -0.275 | [3] -0.058 | [4] -0.009 | entinostat -0.08 | vorinostat -0.25 | citarinostat -0.035 | silmitasertib 0.175 | [5] 0.022 | [6] -0.016

IMPAD1 (UniProt Q9NX62)
inactive: [1] -0.036 | [2] -0.006 | [3] -0.021 | [4] -0.03 | entinostat -0.031 | vorinostat -0.072 | citarinostat -0.011 | silmitasertib -0.011 | [5] -0.018 | [6] -0.042

IGSF3 (UniProt O75054)
inactive: [1] -0.126 | [2] 0.069 | [3] -0.025 | [4] 0.032 | entinostat -0.036 | vorinostat -0.037 | citarinostat 0.017 | silmitasertib -0.01 | [5] -0.019 | [6] 0.069

IER3IP1 (UniProt Q9Y5U9)
inactive: [1] 0.094 | [2] 0.189 | [3] -0.155 | [4] 0.218 | entinostat 0.055 | vorinostat -0.044 | citarinostat 0.054 | silmitasertib 0.118 | [5] 0.267 | [6] 0.08

INTS7 (UniProt Q9NVH2)
inactive: [1] -0.076 | [2] 0.037 | [3] 0.001 | [4] -0.045 | entinostat -0.095 | vorinostat 0.049 | citarinostat -0.007 | silmitasertib 0.055 | [5] 0.092 | [6] 0.01

ITIH4 (UniProt Q14624)
inactive: [1] 0.064 | [2] -0.041 | [3] -0.136 | [4] -0.054 | entinostat 0.048 | vorinostat 0.343 | citarinostat 0.054 | silmitasertib 0.083 | [5] -0.005 | [6] 0.275

INPPL1 (UniProt O15357)
inactive: [1] -0.182 | [2] -0.032 | [3] -0.127 | [4] -0.049 | entinostat 0.015 | vorinostat 0.018 | citarinostat 0.048 | silmitasertib 0.132 | [5] 0.013 | [6] -0.177

IMPA1 isoform 3 (UniProt P29218)
inactive: [1] -0.006 | [2] 0.012 | [3] -0.013 | [4] 0.021 | entinostat -0.032 | vorinostat 0.009 | citarinostat -0.002 | silmitasertib -0.022 | [5] 0.005 | [6] 0.016

ITGA5 (UniProt P08648)
inactive: [1] -0.028 | [2] 0.073 | [3] 0.033 | [4] 0.08 | entinostat -0.058 | vorinostat -0.049 | citarinostat 0.002 | silmitasertib -0.049 | [5] -0.015 | [6] -0.039

IGF2BP3 (UniProt O00425)
inactive: [1] 0.038 | [2] 0.014 | [3] 0.305 | [4] 0.087 | entinostat 0.04 | vorinostat 0.053 | citarinostat 0.026 | silmitasertib 0.245 | [5] 0.352 | [6] -0.148

IQGAP1 (UniProt P46940)
inactive: [1] -0.029 | [2] -0.012 | [3] -0.165 | [4] -0.047 | entinostat 0.059 | vorinostat 0.05 | citarinostat 0.069 | silmitasertib -0.047 | [5] -0.079 | [6] -0.054

ITGB5 (UniProt P18084)
inactive: [1] -0.009 | [2] 0.04 | [3] -0.038 | [4] 0.092 | entinostat -0.001 | vorinostat -0.019 | citarinostat 0.02 | silmitasertib 0.005 | [5] 0.081 | [6] -0.072

IDH3G (UniProt P51553)
inactive: [1] 0.023 | [2] -0.005 | [3] -0.021 | [4] 0.02 | entinostat -0.01 | vorinostat 0.024 | citarinostat 0.035 | silmitasertib -0.013 | [5] -0.018 | [6] 0.009

ISOC1 (UniProt Q96CN7)
inactive: [1] 0.028 | [2] -0.015 | [3] 0.019 | [4] -0.017 | entinostat -0.033 | vorinostat -0.031 | citarinostat -0.02 | silmitasertib -0.03 | [5] -0.044 | [6] 0.051

IFT74 (UniProt Q96LB3)
inactive: [1] 0.035 | [2] 0.009 | [3] 0.135 | [4] 0.045 | entinostat -0.091 | vorinostat 0.101 | citarinostat 0.171 | silmitasertib -0.187 | [5] -0.021 | [6] 0.06

IGF2BP1 (UniProt Q9NZI8)
inactive: [1] -0.061 | [2] -0.019 | [3] 0.261 | [4] 0.081 | entinostat 0.027 | vorinostat 0.095 | citarinostat 0.058 | silmitasertib 0.274 | [5] 0.246 | [6] -0.122

ISCU (UniProt Q9H1K1)
inactive: [1] -0.036 | [2] -0.017 | [3] -0.008 | [4] -0.015 | entinostat -0.045 | vorinostat -0.039 | citarinostat 0.013 | silmitasertib -0.008 | [5] -0.12 | [6] -0.036

ITGB1 (UniProt P05556)
inactive: [1] -0.045 | [2] 0.091 | [3] 0.032 | [4] 0.069 | entinostat -0.022 | vorinostat -0.026 | citarinostat -0.001 | silmitasertib -0.016 | [5] -0.028 | [6] -0.026

IFI30 (UniProt P13284)
inactive: [1] 0.035 | [2] 0.127 | [3] -0.048 | [4] 0.083 | entinostat -0.052 | vorinostat 0.03 | citarinostat 0.059 | silmitasertib -0.052 | [5] 0.128 | [6] -0.028

Reference: the supplement of paper PMC10849652
